In assay [1] the target is T1, PAP8 split-YFP fusion (BiFC of Figure 5d) (Arabidopsis thaliana) (UniProt Q9XI19).
T1 sequence: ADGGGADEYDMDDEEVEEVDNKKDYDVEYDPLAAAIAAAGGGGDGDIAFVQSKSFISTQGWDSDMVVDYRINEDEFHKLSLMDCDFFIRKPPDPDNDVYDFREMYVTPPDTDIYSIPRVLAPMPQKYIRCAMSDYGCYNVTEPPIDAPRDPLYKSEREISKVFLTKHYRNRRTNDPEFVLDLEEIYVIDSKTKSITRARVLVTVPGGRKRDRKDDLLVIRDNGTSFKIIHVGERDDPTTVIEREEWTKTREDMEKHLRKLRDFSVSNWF
The assay can be described thus: split reporter.

Assay [2] addresses T2, β’ subunit of the Sinapis alba plastid-encoded RNA polymerase (SaPEP) (Sinapis alba) (UniProt P46819).
T2 sequence: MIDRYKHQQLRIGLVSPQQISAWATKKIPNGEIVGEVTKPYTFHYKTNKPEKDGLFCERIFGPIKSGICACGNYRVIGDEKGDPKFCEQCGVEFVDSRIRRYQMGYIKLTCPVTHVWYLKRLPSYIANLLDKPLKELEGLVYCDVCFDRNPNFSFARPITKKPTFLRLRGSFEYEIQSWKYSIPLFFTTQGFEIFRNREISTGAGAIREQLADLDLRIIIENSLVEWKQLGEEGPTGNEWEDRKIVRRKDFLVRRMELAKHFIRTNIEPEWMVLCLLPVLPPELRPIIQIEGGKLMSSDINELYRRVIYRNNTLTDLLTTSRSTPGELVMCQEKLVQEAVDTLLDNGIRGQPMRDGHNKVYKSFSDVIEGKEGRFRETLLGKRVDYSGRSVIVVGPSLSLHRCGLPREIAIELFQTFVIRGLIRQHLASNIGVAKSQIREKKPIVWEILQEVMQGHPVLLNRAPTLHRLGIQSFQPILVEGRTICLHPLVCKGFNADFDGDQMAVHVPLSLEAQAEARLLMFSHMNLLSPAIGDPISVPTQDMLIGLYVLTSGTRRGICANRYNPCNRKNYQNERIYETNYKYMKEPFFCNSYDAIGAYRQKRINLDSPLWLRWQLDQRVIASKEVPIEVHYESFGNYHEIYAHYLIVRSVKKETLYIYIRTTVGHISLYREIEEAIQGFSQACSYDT
The assay is described as follows: cryo-EM structure.

Assay [3] has as its target T3, β’’ subunit of the Sinapis alba plastid-encoded RNA polymerase (SaPEP) (Sinapis alba) (UniProt Q9THV5).
T3 sequence: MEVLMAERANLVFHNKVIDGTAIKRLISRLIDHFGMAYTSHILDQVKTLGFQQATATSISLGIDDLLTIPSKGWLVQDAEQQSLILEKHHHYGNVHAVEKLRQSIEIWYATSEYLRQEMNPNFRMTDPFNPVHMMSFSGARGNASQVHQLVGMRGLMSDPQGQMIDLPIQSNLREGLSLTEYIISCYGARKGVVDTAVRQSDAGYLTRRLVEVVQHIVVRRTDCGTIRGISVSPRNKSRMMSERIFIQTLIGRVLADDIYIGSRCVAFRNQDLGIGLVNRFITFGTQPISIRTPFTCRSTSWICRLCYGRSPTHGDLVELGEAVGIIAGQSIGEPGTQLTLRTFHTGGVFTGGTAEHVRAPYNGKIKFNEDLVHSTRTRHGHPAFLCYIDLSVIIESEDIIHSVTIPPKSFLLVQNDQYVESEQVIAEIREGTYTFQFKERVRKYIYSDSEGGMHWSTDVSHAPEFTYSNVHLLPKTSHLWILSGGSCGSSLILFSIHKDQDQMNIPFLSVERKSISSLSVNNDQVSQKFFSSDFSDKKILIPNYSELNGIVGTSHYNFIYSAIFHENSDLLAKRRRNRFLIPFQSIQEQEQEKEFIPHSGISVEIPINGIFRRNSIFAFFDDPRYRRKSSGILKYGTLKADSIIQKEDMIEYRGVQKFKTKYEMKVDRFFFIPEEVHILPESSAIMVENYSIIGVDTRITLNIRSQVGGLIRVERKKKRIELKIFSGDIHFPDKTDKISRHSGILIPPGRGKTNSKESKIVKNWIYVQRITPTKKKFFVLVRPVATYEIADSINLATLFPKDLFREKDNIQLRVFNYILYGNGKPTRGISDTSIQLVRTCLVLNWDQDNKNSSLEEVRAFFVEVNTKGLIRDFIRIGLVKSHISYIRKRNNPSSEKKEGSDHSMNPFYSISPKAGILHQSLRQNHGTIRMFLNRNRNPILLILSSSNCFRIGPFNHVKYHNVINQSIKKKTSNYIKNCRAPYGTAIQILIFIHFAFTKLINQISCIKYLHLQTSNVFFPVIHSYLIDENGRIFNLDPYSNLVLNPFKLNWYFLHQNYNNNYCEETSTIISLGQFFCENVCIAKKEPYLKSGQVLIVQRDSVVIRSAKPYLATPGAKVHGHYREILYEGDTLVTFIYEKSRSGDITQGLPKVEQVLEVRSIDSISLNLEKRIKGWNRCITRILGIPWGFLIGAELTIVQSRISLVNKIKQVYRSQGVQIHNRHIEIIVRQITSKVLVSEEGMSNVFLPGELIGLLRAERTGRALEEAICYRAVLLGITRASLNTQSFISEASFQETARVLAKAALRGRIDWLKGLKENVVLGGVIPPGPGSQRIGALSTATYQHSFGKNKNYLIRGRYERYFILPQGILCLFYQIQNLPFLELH
The assay is described as follows: cryo-EM structure.

Results are given in words; binding and its absence hold for the method and conditions named. A result given as binding can be weak or reduced; the word gives no strength. For part of these data: Binding seen in cells or lysates may run through a third protein. For part of these data: Tags and fused reporters may be left off the sequences shown.

As for “M24 split-YFP fusion (Arabidopsis thaliana)”, the binding entry in assay [1] is reported as “binds”. For the substance “PEP-associated protein 11 (PAP11, MurE-like protein) of Sinapis alba”, the binding entry in assay [2] is reported as “binds”. With PRIN2/PAP15 of Sinapis alba, in assay [3], the binding result is on record as “binds”.

“STICL split-YFP fusion (Arabidopsis thaliana)”: the binding entry in assay [1] is “binds”. The same measure, in the same setting: then “pTAC18 split-YFP fusion (Arabidopsis thaliana)”, with “binds”.

Take pTAC18/PAP14 of Sinapis alba: the binding entry in assay [3] is “binds”.
